Reference: the supplement of paper PMC7238544
Structures can show the parent of a compound that is named as a salt. ± gives the standard deviation of the averaged measurements. This is one part of the list. The data scatter; read single values as rough.

Tests used:
hAMSC donor 1 [1] = assay: Hoechst total cell count ratio vs vehicle control; higher = more cells (less toxicity)
hAMSC donor 2 [2] = assay: as above
hAMSC donor 1 [3] = assay: transgenic luciferase activity (RLU/mg protein) fold change vs vehicle control (ratio); higher = more transgene expression
hAMSC donor 2 [4] = assay: as above
hAMSC donor 1 [5] = assay: transfection efficiency (EGFP+ cells / Hoechst count) fold change vs vehicle control (ratio); hAMSC are human adipose-derived mesenchymal stem cells given an EGFP-luciferase plasmid by lipofection; higher = enhanced transfection
hAMSC donor 2 [6] = assay: as above
[7] = priming compound concentration 0.2 µM
[8] = priming compound concentration 1.7 µM
[9] = priming compound concentration 13 µM

Compound | Hoechst total cell count ratio (hAMSC donor 1 [1]; [7]) | Hoechst total cell count ratio (hAMSC donor 1 [1]; [8]) | Hoechst total cell count ratio (hAMSC donor 1 [1]; [9]) | Hoechst total cell count ratio (hAMSC donor 2 [2]; [7]) | Hoechst total cell count ratio (hAMSC donor 2 [2]; [8]) | Hoechst total cell count ratio (hAMSC donor 2 [2]; [9]) | transgenic luciferase activity (hAMSC donor 1 [3]; [7]) | transgenic luciferase activity (hAMSC donor 1 [3]; [8]) | transgenic luciferase activity (hAMSC donor 2 [4]; [7]) | transgenic luciferase activity (hAMSC donor 2 [4]; [8]) | transgenic luciferase activity (hAMSC donor 2 [4]; [9]) | transfection efficiency (hAMSC donor 1 [5]; [7]) | transfection efficiency (hAMSC donor 1 [5]; [8]) | transfection efficiency (hAMSC donor 1 [5]; [9]) | transfection efficiency (hAMSC donor 2 [6]; [7]) | transfection efficiency (hAMSC donor 2 [6]; [8]) | transfection efficiency (hAMSC donor 2 [6]; [9]) | transgenic luciferase activity (hAMSC donor 1 [3]; [9])
c1ccc(Cn2ccnc2)cc1 [Benzylimidazole] | 1.47 ± 0.094 | 1.23 ± 0.092 | 1.29 ± 0.078 | 1.02 ± 0.042 | 1.17 ± 0.032 | 1.02 ± 0.15 | 0.742 ± 0.13 | 2.6 ± 0.15 | 1.09 ± 0.28 | 1.19 ± 0.079 | 0.843 ± 0.23 | 1.03 ± 0.14 | 1 ± 0.26 | 1.14 ± 0.17 | 1.51 ± 0.35 | 1.19 ± 0.11 | 1.08 ± 0.13 | –
CCCCC/C=C\C/C=C\C/C=C\C/C=C\CCCC(=O)Nc1ccc(O)cc1 | 1.38 ± 0.23 | 1.33 ± 0.091 | 0.965 ± 0.056 | 1.19 ± 0.082 | 0.868 ± 0.033 | 0.834 ± 0.029 | 0.507 ± 0.1 | 1.78 ± 1.8 | 0.546 ± 0.45 | 0.637 ± 0.033 | 1.04 ± 0.2 | 0.926 ± 0.35 | 0.971 ± 0.083 | 1.35 ± 0.092 | 0.929 ± 0.22 | 1.03 ± 0.022 | 1.3 ± 0.18 | 0.105 ± 0.1
O=C(O)C(Cl)Cl [Dichloroacetic acid] | 1.22 ± 0.089 | 1.18 ± 0.077 | 1.09 ± 0.17 | 1.1 ± 0.13 | 1.41 ± 0.036 | 1.21 ± 0.12 | – | 0.527 ± 0.32 | 0.591 ± 0.062 | 0.889 ± 0.056 | 0.913 ± 0.26 | 1.04 ± 0.13 | 1.04 ± 0.29 | 1.35 ± 0.27 | 0.929 ± 0.21 | 0.922 ± 0.044 | 1.09 ± 0.16 | 0.721 ± 0.088
CCOC(=O)c1cncn1[C@H](C)c1ccccc1 [Etomidate] | 1.38 ± 0.031 | 1.34 ± 0.082 | 1.13 ± 0.17 | 1.6 ± 0.074 | 0.896 ± 0.2 | 1.29 ± 0.2 | 0.471 ± 0.08 | 0.581 ± 0.21 | – | – | 1.27 ± 0.38 | 1.07 ± 0.16 | 1.17 ± 0.19 | 1.07 ± 0.14 | 0.852 ± 0.11 | 1.39 ± 0.13 | 1.47 ± 0.27 | 0.803 ± 0.48
CCCC(C)(COC(N)=O)COC(=O)NC(C)C (stereo not given) [Carisoprodol] | 1 ± 0.11 | 1.24 ± 0.21 | 1.41 ± 0.044 | 1.13 ± 0.075 | 0.723 ± 0.15 | 1.28 ± 0.16 | 0.543 ± 0.14 | – | 0.75 ± 0.074 | 0.637 ± 0.14 | – | 1.49 ± 0.18 | 1.34 ± 0.41 | 1.27 ± 0.34 | 0.97 ± 0.098 | 1.38 ± 0.15 | 0.881 ± 0.19 | 8.63 ± 2.8
COc1ccc(CCN)cc1OC [Homoveratrylamine] | 1.03 ± 0.061 | 1.21 ± 0.087 | 0.84 ± 0.11 | 1.19 ± 0.16 | 1 ± 0.16 | 1.19 ± 0.33 | 0.707 ± 0.36 | 0.683 ± 0.29 | 0.772 ± 0.13 | 0.888 ± 0.11 | 0.91 ± 0.26 | 1.73 ± 0.23 | 1.42 ± 0.47 | 1.56 ± 0.26 | 0.971 ± 0.18 | 1.35 ± 0.027 | 1.42 ± 0.41 | –
C[C@]12CC[C@H](O)CC1=CC[C@@H]1[C@@H]2CC[C@]2(C)C(=O)CC[C@@H]12 [Dehydroepiandrosterone] | 1.32 ± 0.23 | 1.27 ± 0.086 | 1.12 ± 0.15 | 1.07 ± 0.06 | 1.28 ± 0.025 | 0.944 ± 0.17 | 0.768 ± 0.15 | 1.17 ± 0.8 | 0.662 ± 0.23 | 0.575 ± 0.13 | 0.887 ± 0.34 | 0.893 ± 0.3 | 0.814 ± 0.058 | 1.03 ± 0.23 | 1.27 ± 0.21 | 1.07 ± 0.16 | 1.23 ± 0.2 | –
C[N+]1(C)CCCC(OC(=O)C(O)(c2ccccc2)c2ccccc2)C1 (stereo not given) [Mepenzolate bromide] | 1.42 ± 0.085 | 1.14 ± 0.18 | 1.52 ± 0.096 | 1.19 ± 0.12 | 0.981 ± 0.1 | 0.843 ± 0.091 | 0.884 ± 0.35 | – | 0.77 ± 0.19 | 0.301 ± 0.023 | – | 1.08 ± 0.16 | 1.21 ± 0.18 | 0.977 ± 0.068 | 0.9877 ± 0.0035 | 1.69 ± 0.14 | 1.36 ± 0.12 | 0.585 ± 0.023
N=C(NCc1ccc(Cl)cc1)SCCCc1c[nH]cn1 [Clobenpropit] | 1.12 ± 0.077 | 1.2 ± 0.046 | 1.16 ± 0.21 | 0.974 ± 0.09 | 1.36 ± 0.29 | 1.34 ± 0.13 | 0.947 ± 0.3 | 0.6 ± 0.35 | 0.469 ± 0.39 | 0.877 ± 0.2 | 0.819 ± 0.3 | 1.57 ± 0.56 | 1.32 ± 0.13 | 0.521 ± 0.062 | 0.964 ± 0.14 | 0.913 ± 0.11 | 0.932 ± 0.16 | –
C=C(C)CN1CC[C@@]23c4c5ccc(O)c4O[C@H]2c2[nH]c4ccccc4c2C[C@]3(O)C1C5 [SDM25N hydrochloride] | 1.44 ± 0.14 | 1.28 ± 0.21 | 1.02 ± 0.074 | 1.19 ± 0.32 | 0.809 ± 0.028 | 0.896 ± 0.14 | 0.474 ± 0.11 | 0.692 ± 0.2 | – | – | 1.08 ± 0.25 | 0.98 ± 0.072 | 1.11 ± 0.24 | 0.842 ± 0.33 | 1.08 ± 0.06 | 0.899 ± 0.1 | 1.01 ± 0.17 | 0.655 ± 0.17
c1ccc2c(c1)Nc1ccccc1S2 [Phenothiazine] | 1.13 ± 0.14 | 1.26 ± 0.082 | 1.15 ± 0.056 | 0.804 ± 0.079 | 0.707 ± 0.055 | 1.17 ± 0.097 | 0.713 ± 0.39 | 0.869 ± 0.42 | 0.471 ± 0.066 | 1.13 ± 0.42 | 1.77 ± 0.29 | 1.42 ± 0.91 | 1 ± 0.54 | 0.885 ± 0.17 | 1.485 ± 0.012 | 1.4 ± 0.059 | 1.33 ± 0.1 | 0.575 ± 0.19
COC(=O)N1CCN(C(=O)Cc2ccc(Cl)c(Cl)c2)C(CN2CCCC2)C1 (stereo not given) | 1.55 ± 0.22 | 1.25 ± 0.068 | 1.35 ± 0.26 | 1.07 ± 0.23 | 1.13 ± 0.06 | 1.36 ± 0.084 | – | 0.794 ± 0.3 | 0.632 ± 0.033 | 0.834 ± 0.042 | 0.73 ± 0.15 | 0.79 ± 0.29 | 1.55 ± 0.6 | 1.16 ± 0.11 | 0.988 ± 0.29 | 1.08 ± 0.13 | 1.02 ± 0.15 | 0.373 ± 0.083
C[C@]12Cc3c[nH]nc3C[C@@H]1CC[C@@H]1[C@@H]2CC[C@@]2(C)[C@H]1CC[C@]2(C)O [Stanozolol] | 1.35 ± 0.14 | 1.21 ± 0.1 | 1.24 ± 0.19 | 1.07 ± 0.028 | 1.08 ± 0.031 | 1.22 ± 0.2 | – | 1.06 ± 0.25 | 0.479 ± 0.14 | 1.12 ± 0.42 | 0.699 ± 0.21 | 1.06 ± 0.059 | 1.31 ± 0.16 | 1.01 ± 0.068 | 0.823 ± 0.18 | 1.31 ± 0.13 | 0.909 ± 0.17 | 0.399 ± 0.14
C[C@]12C/C(=C/O)C(=O)C[C@@H]1CC[C@@H]1[C@@H]2CC[C@@]2(C)[C@H]1CC[C@]2(C)O [Oxymetholone] | 1.05 ± 0.13 | 1.12 ± 0.047 | 1.17 ± 0.19 | 1.12 ± 0.19 | 0.772 ± 0.043 | 0.697 ± 0.27 | 0.935 ± 0.3 | 0.997 ± 0.55 | – | 1.53 ± 0.17 | 0.532 ± 0.085 | 0.961 ± 0.22 | 1.17 ± 0.13 | 1.02 ± 0.041 | 1.24 ± 0.32 | 1.29 ± 0.091 | 1.17 ± 0.28 | –
